By UniProt entry, the sequences of proteins in these tests, tags left out.
UniProt P59215: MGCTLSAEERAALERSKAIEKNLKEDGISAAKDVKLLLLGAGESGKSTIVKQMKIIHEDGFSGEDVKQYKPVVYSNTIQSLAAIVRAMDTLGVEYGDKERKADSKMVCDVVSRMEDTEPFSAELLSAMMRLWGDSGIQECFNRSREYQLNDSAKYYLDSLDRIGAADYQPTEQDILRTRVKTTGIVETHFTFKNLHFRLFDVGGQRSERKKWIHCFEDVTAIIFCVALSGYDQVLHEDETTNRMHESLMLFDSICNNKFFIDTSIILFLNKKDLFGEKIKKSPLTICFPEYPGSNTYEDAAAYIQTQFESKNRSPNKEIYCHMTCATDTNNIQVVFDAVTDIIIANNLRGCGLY
UniProt P63101: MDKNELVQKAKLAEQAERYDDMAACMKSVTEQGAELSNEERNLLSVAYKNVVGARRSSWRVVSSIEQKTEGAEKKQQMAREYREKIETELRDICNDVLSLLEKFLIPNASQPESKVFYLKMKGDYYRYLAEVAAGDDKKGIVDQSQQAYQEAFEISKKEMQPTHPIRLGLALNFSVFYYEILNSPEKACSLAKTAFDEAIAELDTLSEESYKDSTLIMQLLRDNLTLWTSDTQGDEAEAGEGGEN

According to publication doi:10.1101/2025.09.03.673757:

Experiments:
[1] = molecular target: N-terminally His6-tagged wild-type Gαo (rat) (UniProt P59215); assay: affinity purification with mass spectrometry
[2] = molecular target: N-terminally His6-tagged wild-type Gαo (rat) (UniProt P59215); assay: affinity purification with mass spectrometry; remark: listed apart in the source

Molecule	binding [1]	binding [2]
Ywhaz (from UniProt P63101 1-245)	binds	–
RGS7 (protein, UniProt O54829 1-469) MAQGNNYGQTSNGVADESPNMLVYRKMEDVIARMQDEKNGIPIRTVKSFLSKIPSVFSGSDIVQWLIKNLTIEDPVEALHLGTLMAAHGYFFPISDHVLTLKDDGTFYRFQTPYFWPSNCWEPENTDYAVYLCKRTMQNKARLELADYEAESLARLQRAFARKWEFIFMQAEAQAKVDKKRDKIERKILDSQERAFWDVHRPVPGCVNTTEVDIKKSSRMRNPHKTRKSVYGLQNDIRSHSPTHTPTPETKPPTEDELHQQIKYWQIQLDRHRLKMSKVADSLLSYTEQYVEYDPFLVPPDPSNPWLSDDTTFWELEASKEPSQQRVKRWGFGMDEALKDPVGREQFLKFLESEFSSENLRFWLAVEDLKRRPIREVPSRVQEIWQEFLAPGAPSAINLDSKSYDKTTQNVKEPGRYTFEDAQEHIYKLMKSDSYPRFIRSSAYQELLQAKRKGKTLTSKRLTSLVQSY	–	binds
Ywhag (protein, UniProt P61982 1-247) MVDREQLVQKARLAEQAERYDDMAAAMKNVTELNEPLSNEERNLLSVAYKNVVGARRSSWRVISSIEQKTSADGNEKKIEMVRAYREKIEKELEAVCQDVLSLLDNYLIKNCSETQYESKVFYLKMKGDYYRYLAEVATGEKRATVVESSEKAYSEAHEISKEHMQPTHPIRLGLALNYSVFYYEIQNAPEQACHLAKTAFDDAIAELDTLNEDSYKDSTLIMQLLRDNLTLWTSDQQDDDGGEGNN	–	binds

Where two headings read alike, the source gives them in different places. No constants are given. Whether binding was seen depends on the method and setting. Binding seen in cells or lysates may run through a third protein. Here binding means that the protein was enriched with, or labelled near, the bait; the list need not be complete.
